Experimental data reported in doi:10.1101/2024.05.20.594848.
Results are given in words; binding and its absence hold for the method and conditions named. For some assays here: Binding seen in cells or lysates may run through a third protein.

T1: mDCIR1-ECD mutated in the calcium-binding site (mDCIR1-ΔECD), chemically biotinylated (mouse) (UniProt Q923C7)
T1 sequence (chain, biotin (chemical, EZ-Link Sulfo-NHS-LC-Biotin)): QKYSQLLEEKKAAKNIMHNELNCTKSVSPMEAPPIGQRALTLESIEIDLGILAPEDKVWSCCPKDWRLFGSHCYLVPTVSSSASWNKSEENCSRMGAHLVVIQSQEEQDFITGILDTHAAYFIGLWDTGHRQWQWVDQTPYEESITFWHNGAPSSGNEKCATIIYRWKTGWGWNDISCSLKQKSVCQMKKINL


Assays:
[1] = target: T1, mDCIR1-ECD mutated in the calcium-binding site (mDCIR1-ΔECD), chemically biotinylated (mouse); assay: pull-down
[2] = target: mouse low-density lipoprotein receptor-related protein 1 (LRP1) β-chain (mouse (endogenous in BMDM)); assay: far-Western, overlay or dot blot

| binding [1] | binding [2] | Molecule |
| --- | --- | --- |
| no binding | – | mouse low-density lipoprotein receptor-related protein 1 (LRP1) β-chain |
| – | no binding (tested: 3-5 µg/mL) | mDCIR1-ECD mutated in the calcium-binding site (mDCIR1-ΔECD), chemically biotinylated (domain or fragment, UniProt Q923C7 70-262, biotin (chemical, EZ-Link Sulfo-NHS-LC-Biotin)) QKYSQLLEEKKAAKNIMHNELNCTKSVSPMEAPPIGQRALTLESIEIDLGILAPEDKVWSCCPKDWRLFGSHCYLVPTVSSSASWNKSEENCSRMGAHLVVIQSQEEQDFITGILDTHAAYFIGLWDTGHRQWQWVDQTPYEESITFWHNGAPSSGNEKCATIIYRWKTGWGWNDISCSLKQKSVCQMKKINL |
